Reference: patent US12557831B2, “Mogrosides and uses of the same” (The Coca-Cola Company, priority 2019, dated 2026)

Assay: Sweetness evaluation of CC-00489 compared to sucrose reference (sip & spit taste test, two panelists)
Format: in vivo
Conditions: 400 ppm in DI water, one panelist

With `C[C@H](CCC(OC1OC(COC2OCC(O)C(O)C2O)C(O)C(O)C1OCC1OC(CO)C(O)C(O)C1O)C(C)(C)O)[C@H]1CC[C@@]2(C)C3CC=C4[C@@H](CC[C@H](OC5OC(CO)C(O)C(O)C5O)C4(C)C)[C@]3(C)[C@H](O)C[C@]12C` (stereo partly drawn) [CC-00489, mogrol-3-O-[β-D-glucopyranoside]-24-O-{[β-D-glucopyranosyl-(1→2)]-[β-D-xylopyranosyl-(1→6)]-β-D-glucopyranoside}] the “astringency (taste profile)” value was “weak astringency” and the “mouthfeel (taste profile)” value was “good mouthfeel”.
